The values that follow come from PMC10698284.

By UniProt entry, the sequences of proteins in these tests, tags left out. Where a name states a change or a piece, a line headed by the entry shows the natural chain unless it says otherwise. Chains listed by the source or under a name are the forms on record and can include a tag or linker. Residues count along the entry.
FLAG-SLC3A2 WTseq (P08195, residues 66-630): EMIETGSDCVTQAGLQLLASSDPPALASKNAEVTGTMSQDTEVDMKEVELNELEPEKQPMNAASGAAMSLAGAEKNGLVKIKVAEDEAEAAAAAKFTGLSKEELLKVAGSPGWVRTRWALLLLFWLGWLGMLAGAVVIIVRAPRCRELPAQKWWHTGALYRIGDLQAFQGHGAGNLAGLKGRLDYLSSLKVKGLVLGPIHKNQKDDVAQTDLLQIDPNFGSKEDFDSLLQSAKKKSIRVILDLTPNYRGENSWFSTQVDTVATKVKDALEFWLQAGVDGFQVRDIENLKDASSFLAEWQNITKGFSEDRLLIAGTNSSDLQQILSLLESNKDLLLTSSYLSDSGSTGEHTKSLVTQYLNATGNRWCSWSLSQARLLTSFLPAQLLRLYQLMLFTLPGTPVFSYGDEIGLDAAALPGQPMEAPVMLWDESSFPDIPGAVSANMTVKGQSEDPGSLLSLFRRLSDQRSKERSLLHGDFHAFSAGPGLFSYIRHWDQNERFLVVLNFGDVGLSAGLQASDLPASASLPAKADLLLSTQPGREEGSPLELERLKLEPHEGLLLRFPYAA
FLAG-SLC3A2 A273N (P08195, form named): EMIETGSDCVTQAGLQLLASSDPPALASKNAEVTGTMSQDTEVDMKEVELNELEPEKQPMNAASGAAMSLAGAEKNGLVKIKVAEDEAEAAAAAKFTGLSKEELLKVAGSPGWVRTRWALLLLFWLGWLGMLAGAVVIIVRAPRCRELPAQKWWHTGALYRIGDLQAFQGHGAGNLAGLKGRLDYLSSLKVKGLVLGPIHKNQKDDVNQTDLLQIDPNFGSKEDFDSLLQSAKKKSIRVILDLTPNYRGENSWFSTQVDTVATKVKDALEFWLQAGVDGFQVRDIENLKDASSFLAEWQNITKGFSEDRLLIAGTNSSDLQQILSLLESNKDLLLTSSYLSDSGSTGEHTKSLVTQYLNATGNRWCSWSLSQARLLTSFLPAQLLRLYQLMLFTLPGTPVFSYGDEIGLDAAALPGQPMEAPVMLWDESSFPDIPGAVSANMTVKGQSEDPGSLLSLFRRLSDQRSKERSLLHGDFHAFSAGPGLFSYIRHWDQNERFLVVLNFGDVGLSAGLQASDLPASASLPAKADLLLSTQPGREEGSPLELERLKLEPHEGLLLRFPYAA
FLAG-SLC3A2 A273N + D355N (P08195, form named): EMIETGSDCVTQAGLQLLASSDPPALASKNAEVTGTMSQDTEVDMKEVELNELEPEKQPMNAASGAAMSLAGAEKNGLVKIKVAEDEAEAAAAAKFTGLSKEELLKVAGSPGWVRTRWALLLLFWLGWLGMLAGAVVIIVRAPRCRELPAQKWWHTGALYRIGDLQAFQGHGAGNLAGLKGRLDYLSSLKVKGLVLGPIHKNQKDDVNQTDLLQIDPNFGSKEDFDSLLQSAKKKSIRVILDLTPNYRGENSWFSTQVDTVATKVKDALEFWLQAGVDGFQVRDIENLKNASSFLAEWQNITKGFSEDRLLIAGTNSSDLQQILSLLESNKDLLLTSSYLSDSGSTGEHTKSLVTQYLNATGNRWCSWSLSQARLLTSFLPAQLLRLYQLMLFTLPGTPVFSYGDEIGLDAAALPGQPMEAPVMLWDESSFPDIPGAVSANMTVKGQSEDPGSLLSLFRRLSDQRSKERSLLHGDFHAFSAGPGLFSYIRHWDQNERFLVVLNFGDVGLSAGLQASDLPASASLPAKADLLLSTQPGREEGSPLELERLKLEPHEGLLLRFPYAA

What all share (experiment): affinity purification with mass spectrometry; anti-FLAG M2 agarose, 4 h at 4 °C, 1 mg lysate (0.5% NP40, 50 mM HEPES pH 8.0, 100 mM KCl, 1 mM EDTA, 10% glycerol) of HeLa Flp-In T-REx SLC3A2 KO cells with dox-induced FLAG-SLC3A2 WTseq or site variants; on-bead trypsin digest, DDA and SWATH; control: dox-treated SLC3A2 KO cells; in some samples 10 μM fluvastatin or 250 ng/ml swainsonine for the final 24 h

The target in test [1] is FLAG-SLC3A2 WTseq (human) (UniProt P08195).
In test [2] the target is FLAG-SLC3A2 A273N (human) (UniProt P08195).
Test [3] deals with FLAG-SLC3A2 A273N + D355N (human) (UniProt P08195).

No constants are given. Whether binding was seen depends on the method and setting. Binding seen in cells or lysates may run through a third protein. A yes stands for co-enrichment or nearness to the bait. Other partners may have been found.

B1: RPN1 (protein, UniProt P04843 24-607)
chain: ASSEAPPLINEDVKRTVDLSSHLAKVTAEVVLAHLGGGSTSRATSFLLALEPELEARLAHLGVQVKGEDEEENNLEVRETKIKGKSGRFFTVKLPVALDPGAKISVIVETVYTHVLHPYPTQITQSEKQFVVFEGNHYFYSPYPTKTQTMRVKLASRNVESYTKLGNPTRSEDLLDYGPFRDVPAYSQDTFKVHYENNSPFLTITSMTRVIEVSHWGNIAVEENVDLKHTGAVLKGPFSRYDYQRQPDSGISSIRSFKTILPAAAQDVYYRDEIGNVSTSHLLILDDSVEMEIRPRFPLFGGWKTHYIVGYNLPSYEYLYNLGDQYALKMRFVDHVFDEQVIDSLTVKIILPEGAKNIEIDSPYEISRAPDELHYTYLDTFGRPVIVAYKKNLVEQHIQDIVVHYTFNKVLMLQEPLLVVAAFYILFFTVIIYVRLDFSITKDPAAEARMKVACITEQVLTLVNKRIGLYRHFDETVNRYKQSRDISTLNSGKKSLETEHKALTSEIALLQSRLKTEGSDLCDRVSEMQKLDAQVKELVLKSAVEAERLVAGKLKKDTYIENEKLISGKRQELVTKIDHILDAL
Take B1: in test [1], the binding entry was “binds”.

B2: SLC25A19 (protein, UniProt Q9HC21 1-320)
chain: MVGYDPKPDGRNNTKFQVAVAGSVSGLVTRALISPFDVIKIRFQLQHERLSRSDPSAKYHGILQASRQILQEEGPTAFWKGHVPAQILSIGYGAVQFLSFEMLTELVHRGSVYDAREFSVHFVCGGLAACMATLTVHPVDVLRTRFAAQGEPKVYNTLRHAVGTMYRSEGPQVFYKGLAPTLIAIFPYAGLQFSCYSSLKHLYKWAIPAEGKKNENLQNLLCGSGAGVISKTLTYPLDLFKKRLQVGGFEHARAAFGQVRRYKGLMDCAKQVLQKEGALGFFKGLSPSLLKAALSTGFMFFSYEFFCNVFHCMNRTASQR
B2: the binding result in test [1] is reported as “binds”.

B3: SLC1A5 (protein, UniProt Q15758 1-541)
chain: MVADPPRDSKGLAAAEPTANGGLALASIEDQGAAAGGYCGSRDQVRRCLRANLLVLLTVVAVVAGVALGLGVSGAGGALALGPERLSAFVFPGELLLRLLRMIILPLVVCSLIGGAASLDPGALGRLGAWALLFFLVTTLLASALGVGLALALQPGAASAAINASVGAAGSAENAPSKEVLDSFLDLARNIFPSNLVSAAFRSYSTTYEERNITGTRVKVPVGQEVEGMNILGLVVFAIVFGVALRKLGPEGELLIRFFNSFNEATMVLVSWIMWYAPVGIMFLVAGKIVEMEDVGLLFARLGKYILCCLLGHAIHGLLVLPLIYFLFTRKNPYRFLWGIVTPLATAFGTSSSSATLPLMMKCVEENNGVAKHISRFILPIGATVNMDGAALFQCVAAVFIAQLSQQSLDFVKIITILVTATASSVGAAGIPAGGVLTLAIILEAVNLPVDHISLILAVDWLVDRSCTVLNVEGDALGAGLLQNYVDRTESRSTEPELIQVKSELPLDPLPVPTEEGNPLLKHYRGPAGDATVASEKESVM
Turning to B3, the binding result in test [2], in test [1] and in test [3] was “binds” in each case.

B4: STT3A (protein, UniProt P46977 1-705)
chain: MTKFGFLRLSYEKQDTLLKLLILSMAAVLSFSTRLFAVLRFESVIHEFDPYFNYRTTRFLAEEGFYKFHNWFDDRAWYPLGRIIGGTIYPGLMITSAAIYHVLHFFHITIDIRNVCVFLAPLFSSFTTIVTYHLTKELKDAGAGLLAAAMIAVVPGYISRSVAGSYDNEGIAIFCMLLTYYMWIKAVKTGSICWAAKCALAYFYMVSSWGGYVFLINLIPLHVLVLMLTGRFSHRIYVAYCTVYCLGTILSMQISFVGFQPVLSSEHMAAFGVFGLCQIHAFVDYLRSKLNPQQFEVLFRSVISLVGFVLLTVGALLMLTGKISPWTGRFYSLLDPSYAKNNIPIIASVSEHQPTTWSSYYFDLQLLVFMFPVGLYYCFSNLSDARIFIIMYGVTSMYFSAVMVRLMLVLAPVMCILSGIGVSQVLSTYMKNLDISRPDKKSKKQQDSTYPIKNEVASGMILVMAFFLITYTFHSTWVTSEAYSSPSIVLSARGGDGSRIIFDDFREAYYWLRHNTPEDAKVMSWWDYGYQITAMANRTILVDNNTWNNTHISRVGQAMASTEEKAYEIMRELDVSYVLVIFGGLTGYSSDDINKFLWMVRIGGSTDTGKHIKENDYYTPTGEFRVDREGSPVLLNCLMYKMCYYRFGQVYTEAKRPPGFDRVRNAEIGNKDFELDVLEEAYTTEHWLVRIYKVKDLDNRGLSRT
Turning to B4, the binding result in test [1] is listed as “binds”.

B5: SLC25A11 (protein, UniProt Q02978 1-314)
chain: MAATASAGAGGIDGKPRTSPKSVKFLFGGLAGMGATVFVQPLDLVKNRMQLSGEGAKTREYKTSFHALTSILKAEGLRGIYTGLSAGLLRQATYTTTRLGIYTVLFERLTGADGTPPGFLLKAVIGMTAGATGAFVGTPAEVALIRMTADGRLPADQRRGYKNVFNALIRITREEGVLTLWRGCIPTMARAVVVNAAQLASYSQSKQFLLDSGYFSDNILCHFCASMISGLVTTAASMPVDIAKTRIQNMRMIDGKPEYKNGLDVLFKVVRYEGFFSLWKGFTPYYARLGPHTVLTFIFLEQMNKAYKRLFLSG
Take B5: the binding result in test [1] is “binds”.

B6: TMX3 (protein, UniProt Q96JJ7 25-454)
chain: KGFVEDLDESFKENRNDDIWLVDFYAPWCGHCKKLEPIWNEVGLEMKSIGSPVKVGKMDATSYSSIASEFGVRGYPTIKLLKGDLAYNYRGPRTKDDIIEFAHRVSGALIRPLPSQQMFEHMQKRHRVFFVYVGGESPLKEKYIDAASELIVYTYFFSASEEVVPEYVTLKEMPAVLVFKDETYFVYDEYEDGDLSSWINRERFQNYLAMDGFLLYELGDTGKLVALAVIDEKNTSVEHTRLKSIIQEVARDYRDLFHRDFQFGHMDGNDYINTLLMDELTVPTVVVLNTSNQQYFLLDRQIKNVEDMVQFINNILDGTVEAQGGDSILQRLKRIVFDAKSTIVSIFKSSPLMGCFLFGLPLGVISIMCYGIYTADTDGGYIEERYEVSKSENENQEQIEESKEQQEPSSGGSVVPTVQEPKDVLEKKKD
As to B6, the binding result in test [2] and in test [1] was “binds” throughout.

B7: SLC25A22 (protein, UniProt Q9H936 1-323)
chain: MADKQISLPAKLINGGIAGLIGVTCVFPIDLAKTRLQNQQNGQRVYTSMSDCLIKTVRSEGYFGMYRGAAVNLTLVTPEKAIKLAANDFFRHQLSKDGQKLTLLKEMLAGCGAGTCQVIVTTPMEMLKIQLQDAGRIAAQRKILAAQGQLSAQGGAQPSVEAPAAPRPTATQLTRDLLRSRGIAGLYKGLGATLLRDVPFSVVYFPLFANLNQLGRPASEEKSPFYVSFLAGCVAGSAAAVAVNPCDVVKTRLQSLQRGVNEDTYSGILDCARKILRHEGPSAFLKGAYCRALVIAPLFGIAQVVYFLGIAESLLGLLQDPQA
Consider B7, for which the binding entry in test [1] was “binds”.

B8: SLC25A6 (protein, UniProt P12236 1-298)
chain: MTEQAISFAKDFLAGGIAAAISKTAVAPIERVKLLLQVQHASKQIAADKQYKGIVDCIVRIPKEQGVLSFWRGNLANVIRYFPTQALNFAFKDKYKQIFLGGVDKHTQFWRYFAGNLASGGAAGATSLCFVYPLDFARTRLAADVGKSGTEREFRGLGDCLVKITKSDGIRGLYQGFSVSVQGIIIYRAAYFGVYDTAKGMLPDPKNTHIVVSWMIAQTVTAVAGVVSYPFDTVRRRMMMQSGRKGADIMYTGTVDCWRKIFRDEGGKAFFKGAWSNVLRGMGGAFVLVLYDELKKVI
As for B8, the binding result in test [1] is on record as “binds”.

B9: DDOST (protein, UniProt P39656 43-456)
chain: SGPRTLVLLDNLNVRETHSLFFRSLKDRGFELTFKTADDPSLSLIKYGEFLYDNLIIFSPSVEDFGGNINVETISAFIDGGGSVLVAASSDIGDPLRELGSECGIEFDEEKTAVIDHHNYDISDLGQHTLIVADTENLLKAPTIVGKSSLNPILFRGVGMVADPDNPLVLDILTGSSTSYSFFPDKPITQYPHAVGKNTLLIAGLQARNNARVIFSGSLDFFSDSFFNSAVQKAAPGSQRYSQTGNYELAVALSRWVFKEEGVLRVGPVSHHRVGETAPPNAYTVTDLVEYSIVIQQLSNGKWVPFDGDDIQLEFVRIDPFVRTFLKKKGGKYSVQFKLPDVYGVFQFKVDYNRLGYTHLYSSTQVSVRPLQHTQYERFIPSAYPYYASAFSMMLGLFIFSIVFLHMKEKEKSD
In the case of B9, in test [1], the binding result is recorded as “binds”.

B10: SLC25A13 (protein, UniProt Q9UJS0 1-675)
chain: MAAAKVALTKRADPAELRTIFLKYASIEKNGEFFMSPNDFVTRYLNIFGESQPNPKTVELLSGVVDQTKDGLISFQEFVAFESVLCAPDALFMVAFQLFDKAGKGEVTFEDVKQVFGQTTIHQHIPFNWDSEFVQLHFGKERKRHLTYAEFTQFLLEIQLEHAKQAFVQRDNARTGRVTAIDFRDIMVTIRPHVLTPFVEECLVAAAGGTTSHQVSFSYFNGFNSLLNNMELIRKIYSTLAGTRKDVEVTKEEFVLAAQKFGQVTPMEVDILFQLADLYEPRGRMTLADIERIAPLEEGTLPFNLAEAQRQKASGDSARPVLLQVAESAYRFGLGSVAGAVGATAVYPIDLVKTRMQNQRSTGSFVGELMYKNSFDCFKKVLRYEGFFGLYRGLLPQLLGVAPEKAIKLTVNDFVRDKFMHKDGSVPLAAEILAGGCAGGSQVIFTNPLEIVKIRLQVAGEITTGPRVSALSVVRDLGFFGIYKGAKACFLRDIPFSAIYFPCYAHVKASFANEDGQVSPGSLLLAGAIAGMPAASLVTPADVIKTRLQVAARAGQTTYSGVIDCFRKILREEGPKALWKGAGARVFRSSPQFGVTLLTYELLQRWFYIDFGGVKPMGSEPVPKSRINLPAPNPDHVGGYKLAVATFAGIENKFGLYLPLFKPSVSTSKAIGGGP
Consider B10, for which the binding entry in test [1] is recorded as “binds”.
